From US20210069082A1, “SPIROKETALS AND USES THEREOF” (Memorial Sloan-Kettering Cancer Center, priority 2017, published 2021)
At least one structure is not confirmed: it was looked up by name or label, or the drawing left a doubt.

System: rat mesangial cells
Experiment: Inhibition of high glucose-induced ROS production in rat mesangial cells (DCFH-DA fluorescence)
Type: cell-based
Conditions: compound 0-200 μM, high (30 mM) glucose, 3 h, DCFH-DA 50 μM; mean of three experiments, s.d. of log IC50 in brackets
Protocol: The inhibitory effects of the pyrrolomorpholine spiroketals on high glucose-induced oxidative stress were evaluated in rat mesangial cells (RMC). The rat mesangial cells, obtained from the American Type Culture Collection (CRL-2573), were cultured at 37° C. in Dulbecco's modified Eagle's medium (DMEM) containing 5.6 mM glucose (normal glucose), 10% fetal calf serum (FCS), nonessential amino acids, penicillin/streptomycin under a humidified atmosphere of 95% air and 5% CO2. Rat mesangial cells were seeded in 96-well plates approximately 24 hours before the start of all experiments. […]
For each experiment, rat mesangial cells were incubated with pyrrolomorpholine spiroketal compound (0.01, 0.03, 0.1, 0.3, 1, 3, 10, 30, 100, 200 μM) or 1 mM N-acetyl cysteine (NAC, positive control) in the presence of either 5.6 mM (normal glucose, NG) or 30 mM (high glucose, HG) D-glucose for 3 h. RMC were then incubated with 50 μM dichloro-dihydro-fluorescein diacetate (DCFH-DA) for 45 min, and intracellular production of ROS was detected by 2′,7′-dichlorofluorescein (DCF) fluorescence (485 nm excitation, 530 emission) as measured by a microplate reader (SpectraMax M5/M5, Molecular Devices). Values are expressed as percentage of ROS inhibition, where fluorescence from untreated cells under normal glucose conditions was set at 0% and untreated cells under high glucose conditions was set at 100%.

SMILES: O=Cc1ccc2n1C[C@]1(C[C@H](O)[C@@H](CO)O1)OC2 [acortatarin A (1), acortatarin A]
- IC50 (μM) [s.d. log IC50]: 4.9 [0.06] μM
